PubChem BioAssay AID1259267 | Sanger Institute – 2017

Screen: 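Kinase and colorectal-mutated gene knock-downs lethal to GP5D cells alone or with drugs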 (primary screen)
System: human GP5D colorectal cancer cells
Knock-down reagent: siRNA pool against human genes
Challenge: anchor drugs at low dose: BYL719 1 µM, cetuximab 5 µg/ml, trametinib 10 nM, or DMSO vehicle
Measurement: 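Mean replicate viability versus non-targeting pool, given as knock-down-alone robust z-score, DMSO fraction, and synergy with low-dose BYL719, cetuximab or trametinib (1 µM, 5 µg/ml, 10 nM)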
Reading the numbers: robust z-score, knock-down alone and viability with DMSO: higher = more viable cells; synergy score with trametinib: higher = stronger synthetic lethal synergy with drug
Active means: 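a robust z-score below -3 for the knock-down by itself makes a gene active, i.e. essential alone; synergy scores are ignored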
Meaning of the calls: active = essential alone; inactive = not essential
Here is one part, drawn at random, of 794 deposited reagents. 9 of them (1.1%) count as active. 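Viability capped at 1; calls reflect loss of viability from knock-down alone, not synergy with drugs.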 Not all columns of the deposit are shown. No sequences are given here. Not stated in the record: the amount of reagent, the time to read-out.

| Target gene | robust z-score, knock-down alone | viability with DMSO (fraction of control) | synergy score with trametinib | activity call |
| --- | --- | --- | --- | --- |
| TRPM6 | 0.817 | 1 | -0.197 | inactive |
| STK38 | -0.854 | 0.646 | -0.129 | inactive |
| ROR1 | 0.0324 | 0.834 | 0.0858 | inactive |
| TGFBR1 | 0.817 | 1 | -0.161 | inactive |
| EEF2K | -2.15 | 0.372 | 0.0796 | inactive |
| MAP3K15 | 0.249 | 0.88 | 0.0055 | inactive |
| PIP5K1C | -0.315 | 0.76 | -0.000411 | inactive |
| NF1 | 0.688 | 0.973 | 0.279 | inactive |
| TGFBR2 | 0.194 | 0.868 | 0.0639 | inactive |
| PIK3CB | 0.661 | 0.967 | -0.139 | inactive |
| PRKD3 | 0.817 | 1 | 0.256 | inactive |
| STK17A | -0.574 | 0.705 | 0.184 | inactive |
| PRKAG2 | 0.817 | 1 | -0.197 | inactive |
| HSPB8 | 0.0336 | 0.834 | 0.263 | inactive |
| PCK2 | 0.817 | 1 | -0.0984 | inactive |
| PSKH2 | 0.817 | 1 | 0.235 | inactive |
| EPHA3 | 0.535 | 0.94 | 0.255 | inactive |
| NTRK3 | -1.19 | 0.576 | -0.22 | inactive |
| PIKFYVE | 0.817 | 1 | -0.0588 | inactive |
| SYNCRIP | -0.577 | 0.705 | 0.293 | inactive |
| BMPR1B | -0.794 | 0.659 | -0.187 | inactive |
| PRPS1 | 0.817 | 1 | 0.0999 | inactive |
| PKMYT1 | 0.412 | 0.914 | -0.13 | inactive |
| MAP2K2 | 0.817 | 1 | 0.0184 | inactive |
| FGFR1 | -0.512 | 0.718 | 0.231 | inactive |
| PRKAA1 | 0.817 | 1 | 0.202 | inactive |
| PAK5 | 0.817 | 1 | 0.122 | inactive |
| NUAK1 | -1.43 | 0.524 | 0.058 | inactive |
| MAP2K4 | 0.817 | 1 | -0.197 | inactive |
| HASPIN | 0.725 | 0.981 | 0.254 | inactive |
| PGK2 | 0.369 | 0.905 | 0.216 | inactive |
| MAPK11 | 0.432 | 0.918 | 0.202 | inactive |
| TTK | 0.0347 | 0.834 | 0.131 | inactive |
| ELP1 | -0.574 | 0.705 | -0.186 | inactive |
| TCF7L2 | 0.817 | 1 | -0.197 | inactive |
| PRKAB1 | -0.94 | 0.628 | -0.318 | inactive |
| MAPKAPK5 | 0.16 | 0.861 | 0.0896 | inactive |
| RAF1 | 0.817 | 1 | -0.172 | inactive |
| TK2 | 0.817 | 1 | -0.0445 | inactive |
| PRKCG | -0.914 | 0.633 | -0.105 | inactive |
| ACO1 | -0.213 | 0.782 | 0.196 | inactive |
| ERBB4 | -1.1 | 0.595 | 0.0258 | inactive |
| PRKX | 0.817 | 1 | -0.197 | inactive |
| MASTL | 0.265 | 0.883 | -0.0264 | inactive |
| PGK1 | -0.0936 | 0.807 | 0.0557 | inactive |
| MECOM | 0.817 | 1 | -0.197 | inactive |
| PRKCE | 0.684 | 0.972 | -0.162 | inactive |
| MAPK15 | -1.25 | 0.562 | -0.0695 | inactive |
| CREBBP | 0.35 | 0.901 | 0.186 | inactive |
| PRKAR2A | -0.993 | 0.616 | -0.284 | inactive |

8 neighbouring entries already listed, quoted:
| Target gene | robust z-score, knock-down alone | viability with DMSO (fraction of control) | synergy score with trametinib | activity call |
| --- | --- | --- | --- | --- |
| PRKCG | -0.914 | 0.633 | -0.105 | inactive |
| ACO1 | -0.213 | 0.782 | 0.196 | inactive |
| ERBB4 | -1.1 | 0.595 | 0.0258 | inactive |
| PRKX | 0.817 | 1 | -0.197 | inactive |
| MASTL | 0.265 | 0.883 | -0.0264 | inactive |
| PGK1 | -0.0936 | 0.807 | 0.0557 | inactive |
| MECOM | 0.817 | 1 | -0.197 | inactive |
| PRKCE | 0.684 | 0.972 | -0.162 | inactive |
